Assay results reported in publication PMC9789407.
Results are given in words; binding and its absence hold for the method and conditions named. Binding seen in cells or lysates may run through a third protein. Some binding calls cover weakened binding; strength is not graded here.

Chains of the proteins cited; added tags and fusions are not shown. Lines headed by an entry give the natural chain unless they say otherwise; changes in a name come on top. A line that says so, or that is headed by a name, gives the form on record, which may keep a tag or linker.
UniProt Q9BPZ7: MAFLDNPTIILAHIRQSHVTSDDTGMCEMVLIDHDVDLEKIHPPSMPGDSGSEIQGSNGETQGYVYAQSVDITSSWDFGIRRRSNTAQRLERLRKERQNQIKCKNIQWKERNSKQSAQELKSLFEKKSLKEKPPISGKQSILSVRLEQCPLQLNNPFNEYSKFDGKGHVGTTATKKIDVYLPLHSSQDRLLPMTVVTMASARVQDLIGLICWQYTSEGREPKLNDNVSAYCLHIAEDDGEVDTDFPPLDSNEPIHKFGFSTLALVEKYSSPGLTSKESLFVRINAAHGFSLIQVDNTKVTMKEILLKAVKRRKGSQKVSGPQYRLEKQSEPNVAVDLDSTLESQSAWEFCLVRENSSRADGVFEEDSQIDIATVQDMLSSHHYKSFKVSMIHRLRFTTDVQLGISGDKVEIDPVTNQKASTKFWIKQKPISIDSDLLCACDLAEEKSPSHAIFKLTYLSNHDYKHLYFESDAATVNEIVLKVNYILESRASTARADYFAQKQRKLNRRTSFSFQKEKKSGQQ
UniProt Q9WVC6: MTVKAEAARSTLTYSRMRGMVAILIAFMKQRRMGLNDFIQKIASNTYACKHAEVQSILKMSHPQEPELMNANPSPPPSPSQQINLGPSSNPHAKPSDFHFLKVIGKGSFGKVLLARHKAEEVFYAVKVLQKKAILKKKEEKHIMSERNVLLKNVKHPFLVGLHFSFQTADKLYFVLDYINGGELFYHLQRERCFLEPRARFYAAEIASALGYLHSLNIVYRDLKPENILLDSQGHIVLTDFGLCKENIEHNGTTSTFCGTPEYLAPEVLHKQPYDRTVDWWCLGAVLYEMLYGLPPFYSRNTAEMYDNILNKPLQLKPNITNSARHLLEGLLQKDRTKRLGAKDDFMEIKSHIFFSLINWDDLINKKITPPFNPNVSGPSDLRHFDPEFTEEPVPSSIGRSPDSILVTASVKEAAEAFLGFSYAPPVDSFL
Myc–WNK1 (1-491) (K233M) (Q9JIH7, form named): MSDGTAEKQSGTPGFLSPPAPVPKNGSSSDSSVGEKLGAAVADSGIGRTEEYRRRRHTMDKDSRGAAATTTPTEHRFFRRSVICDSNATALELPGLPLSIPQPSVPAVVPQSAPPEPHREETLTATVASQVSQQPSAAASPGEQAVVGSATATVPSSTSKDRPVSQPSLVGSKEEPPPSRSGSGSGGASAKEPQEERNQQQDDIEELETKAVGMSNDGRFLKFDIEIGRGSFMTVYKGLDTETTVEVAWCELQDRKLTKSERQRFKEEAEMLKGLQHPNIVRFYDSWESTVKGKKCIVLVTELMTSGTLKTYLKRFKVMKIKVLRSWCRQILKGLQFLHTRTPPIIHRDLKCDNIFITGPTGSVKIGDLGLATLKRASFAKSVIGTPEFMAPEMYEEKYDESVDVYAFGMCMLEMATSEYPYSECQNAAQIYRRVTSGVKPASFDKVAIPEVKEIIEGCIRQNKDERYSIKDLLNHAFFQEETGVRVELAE

Assays:
[1] = target: SIN1–V5 (UniProt Q9BPZ7); assay: co-IP; anti-V5 affinity gel IP of SIN1–V5 from transfected WNK1−/− SIN1−/− HEK-293T cells with add-back of WNK1 (Fig. S8C); 1% CHAPS buffer
[2] = target: Flag–SGK1 (WT) (UniProt Q9WVC6); assay: co-IP; anti-FLAG M2 affinity gel IP of Flag–SGK1 from WNK1−/− SIN1−/− HEK-293 cells transfected with Flag–SGK1, Myc–WNK1 (WT or K233M) and SIN1–V5; serum starved, 1 mM [K+] then 1 or 5 mM [K+] for 1 h; 1% CHAPS lysis buffer, overnight at 4°C; blots for V5 and Myc

| binding [1] | binding [2] | Substance |
| --- | --- | --- |
| binds | – | Flag–SGK1 (WT) (from UniProt Q9WVC6 1-431) (enzyme) |
| – | binds | Myc–WNK1 (1-491) (K233M) (from UniProt Q9JIH7 1-491) (domain or fragment) |
